Data taken from PubChem BioAssay AID2685 (National Center for Advancing Translational Sciences (NCATS), 2010).
The other results are listed elsewhere or left out. Further columns of the screen follow, without active or inactive calls. Compounds called inactive in the main read-out are mostly missing here. The note in brackets gives the kind of curve behind each potency; many fits are weak.

Test: qHTS Assay for Lipid Storage Modulators in Drosophila S3 Cells;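 for cell number change: cells counted by Cell Tracker Red CMTPX staining in the red channel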
Details: BODIPY lipid droplet fluorescence, 18-24 h; for cell number change: measured here: cell count max response, cells fed with added oleic acid
Procedure, shortened: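 Laser-scanning cytometry quantifies lipid droplet accumulation (500–530 nm total intensity; droplet/cell object ratio) in oleic acid-fed (400 uM added) Drosophila S3 cells treated with a concentration series. 20 uM Triacsin C defined 100% inhibition.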

[1] = measured here: cell number channel AC50, cells fed with added oleic acid
[2] = measured here: lipid fluorescence (Fed channel) AC50, cells fed with added oleic acid

SMILES: Cc1onc(-c2c(F)cccc2Cl)c1C(=O)NCCO
- cell number change: -37.1%
- AC50 [1]: 5.8 µM [falling, partial curve, poor fit]

SMILES: O=C(COc1ccc(Cl)cc1Br)NCC(c1ccco1)N1CCCC1 (centres undefined)
- cell number change: -15%
- AC50 [2]: 9.2 µM [rising, partial curve, poor fit]

SMILES: Cc1ccc(O)c(CNCCNCc2cc(C)ccc2O)c1
- cell number change: 5.12%
- AC50 [2]: 0.731 µM [falling, partial curve, poor fit]

SMILES: Cc1cc(OCC(=O)NNC(=O)c2cnccn2)cc(C)c1Cl
- cell number change: -11%
- AC50 [2]: 29.1 µM [rising, single point]

SMILES: CCN(CC(=O)Nc1c(F)cccc1F)C(=O)c1ccc(Sc2nncn2C)c([N+](=O)[O-])c1
- cell number change: -25.3%

SMILES: COc1ccc(CC(NC(C)=O)C(=O)NC2CCN(C(=O)Nc3ccccc3C)CC2)cc1OC (centres undefined)
- cell number change: -10.3%
- AC50 [2]: 6.51 µM [rising, single point]

SMILES: CCN(CC)c1ccc(CNC23CN4CN(CN(C4)C2)C3)cc1
- AC50 [2]: 6.51 µM [falling, single point]

SMILES: CCn1nc(C)cc1C(=O)Sc1cccc(Cl)c1
- cell number change: -20.1%
- AC50 [2]: 0.461 µM [falling, full curve]

SMILES: O=C(c1ccco1)N1CCN(Cc2cc(=O)c(OCc3ccccc3Cl)co2)CC1
- cell number change: -47.8%
- AC50 [1]: 10.3 µM [falling, partial curve, poor fit]

SMILES: CCN(CC(=O)Nc1ccccc1C(F)(F)F)C(=O)c1ccc2[nH]c3c(c2c1)CC(C)CC3 (centres undefined)
- AC50 [2]: 0.13 µM [rising, full curve, poor fit]

SMILES: OCCCNc1c2ccccc2nc2ccccc12
- cell number change: -24.2%
- AC50 [2]: 29.1 µM [falling, partial curve]

SMILES: CCn1c(-c2cccnc2Cl)nc2ccccc21
- cell number change: 62.1%
- AC50 [1]: 8.2 µM [rising, partial curve]

SMILES: Cc1nn(-c2ccccc2)c(Cl)c1/C=N/NC(=O)c1ccnn1C
- cell number change: 48.2%
- AC50 [1]: 29.1 µM [rising, single point]

SMILES: COc1ccc(C2C3=C(CC(C)(C)CC3=O)Oc3ncn(Cc4ccco4)c(=N)c32)cc1 (centres undefined)
- cell number change: 3.74%
- AC50 [2]: 7.31 µM [rising, partial curve]

SMILES: Cc1cc(Cl)ccc1NC(=O)c1ccc2c(c1)OCO2
- cell number change: -9.79%
- AC50 [2]: 29.1 µM [falling, single point]

SMILES: CSc1nc(N)c2c3c(sc2n1)COC(C(C)C)C3 (centres undefined)
- cell number change: 82.1%
- AC50 [1]: 29.1 µM [rising, single point]

SMILES: CSc1nc(=O)n(-c2ccccc2)c(C)c1C(C)=O
- cell number change: 2.69%

SMILES: Cc1ccc(CNC(=O)COC(=O)c2cc(C)oc2C)cc1
- AC50 [2]: 6.51 µM [rising, partial curve, poor fit]

SMILES: O=C(CSc1nnc(Cc2ccccc2)n1-c1ccc(Cl)cc1)N1CCOCC1
- cell number change: -52.5%
- AC50 [1]: 20.6 µM [falling, partial curve]
- AC50 [2]: 1.46 µM [falling, full curve, poor fit]

SMILES: CCNC(=S)NNC(=O)c1nn(C)c(C)c1Cl
- cell number change: 18.4%
- AC50 [1]: 0.82 µM [rising, full curve]
- AC50 [2]: 0.231 µM [rising, full curve, poor fit]

SMILES: O=C(NCc1ccccc1F)C(=O)NCC1OCCCN1S(=O)(=O)c1cccs1 (centres undefined)
- cell number change: 31.2%
- AC50 [2]: 6.51 µM [rising, partial curve]

SMILES: Clc1cc(NCc2ccccc2)ncn1
- cell number change: 5.21%
- AC50 [2]: 3.26 µM [falling, partial curve]

SMILES: O=C(c1cc(=O)[nH]c2ccccc12)N(Cc1nnc(-c2ccccc2Cl)o1)C1CC1
- cell number change: 120%
- AC50 [1]: 14.6 µM [rising, partial curve]

SMILES: O=C1C2C3C=CC(CO)(O3)C2C(=O)N1c1ccc(-c2ccccc2)cc1 (centres undefined)
- cell number change: -70.3%
- AC50 [1]: 16.4 µM [falling, partial curve]
- AC50 [2]: 18.4 µM [falling, partial curve]

SMILES: OC(CC#CCN1CCCC1)(c1ccccc1)c1ccccc1
- cell number change: -5.96%
- AC50 [2]: 5.8 µM [falling, single point]

SMILES: CCOc1ccc(C(C)NC(=S)NCc2ccc(F)cc2)cc1 (centres undefined)
- cell number change: 27.7%

SMILES: CCc1nc2ccc(C(=O)N(CC)CC(=O)Nc3c(F)cccc3F)cc2nc1CC
- cell number change: 8.13%
- AC50 [2]: 14.6 µM [rising, single point]

SMILES: COc1ccc(NC(=O)NC2(C(=O)N3CCCCCC3)CCCCC2)cc1
- cell number change: 9.29%
- AC50 [2]: 0.00517 µM [falling, full curve]

SMILES: c1ccc2c(Oc3ccc4c(c3)OCO4)nncc2c1
- cell number change: -10.7%
- AC50 [2]: 0.259 µM [rising, full curve]

SMILES: CC(C)CC(=O)OCC(=O)Nc1ccccc1Sc1ccccc1
- cell number change: 3.93%
- AC50 [2]: 29.1 µM [rising, single point]

SMILES: CCn1c2ccccc2c2cc(NC(=O)CC(C)=O)ccc21
- cell number change: 24.9%
- AC50 [2]: 5.8 µM [rising, full curve]

SMILES: Cc1cccnc1NC(=O)CN1C(=O)c2ccccc2S1(=O)=O
- AC50 [1]: 2.59 µM [rising, partial curve]

SMILES: Cc1ccc(S(=O)(=O)NC(CC(=O)O)c2ccccc2)c(C)c1 (centres undefined)
- cell number change: -15.5%
- AC50 [2]: 2.59 µM [falling, single point]

SMILES: O=C(N1CCC(O)(c2cccnc2)CC1)C12CC3CC(CC(C3)C1)C2
- cell number change: 20.1%
- AC50 [2]: 0.517 µM [falling, full curve]

SMILES: CCOC(CNC(=O)CN1C(=O)COc2ccc(S(=O)(=O)N3CCCC3)cc21)OCC
- cell number change: 16.1%
- AC50 [2]: 3.66 µM [falling, full curve]

SMILES: COc1cc2cc(CCCOC(=O)c3ccc(C(F)(F)F)cc3)oc(=O)c2cc1OC
- cell number change: -4.33%
- AC50 [2]: 0.116 µM [falling, full curve, poor fit]

SMILES: FC(F)(F)c1cccc(NC(=S)NNC(=S)Nc2cccc(C(F)(F)F)c2)c1
- cell number change: -55.4%
- AC50 [1]: 20.6 µM [falling, single point]
- AC50 [2]: 29.1 µM [falling, single point]

SMILES: Cc1ccc(-n2cnc3cc(NCc4cccs4)ccc32)cc1
- cell number change: -33.6%
- AC50 [1]: 3.66 µM [falling, single point]
- AC50 [2]: 6.51 µM [rising, partial curve, poor fit]

SMILES: Cc1c(NC(=O)Nc2ccc3c(c2)OCO3)cccc1[N+](=O)[O-]
- cell number change: 28.5%
- AC50 [2]: 8.2 µM [rising, partial curve]

SMILES: CC1CN(C(=O)CCC(=O)NCc2ccccc2)c2ccccc2O1 (centres undefined)
- cell number change: 20.5%
- AC50 [1]: 3.26 µM [rising, full curve, poor fit]

SMILES: O=NN(CCc1ccncc1)c1ccc(OCc2ccccc2)cc1
- cell number change: -29.9%
- AC50 [2]: 18.4 µM [falling, single point]

SMILES: O=C(COC(=O)CCC(=O)c1cccs1)NCc1ccc(Cl)cc1
- AC50 [1]: 0.291 µM [rising, partial curve, poor fit]

SMILES: Cc1noc(C)c1C(=O)Nc1nc(-c2ccc(F)cc2)cs1
- cell number change: -5.01%
- AC50 [2]: 0.651 µM [rising, partial curve, poor fit]

SMILES: O=c1[nH]oc(O)c1-c1ncc(C(F)(F)F)cc1Cl
- cell number change: -55.7%
- AC50 [1]: 29.1 µM [falling, single point]
- AC50 [2]: 29.1 µM [falling, single point]

SMILES: Cc1ccc(NC(=O)c2ccc3c(=O)n4c(nc3c2)CCC4)cc1S(=O)(=O)N(C)C
- cell number change: 33%
- AC50 [1]: 8.2 µM [rising, partial curve, poor fit]

SMILES: CN(CCOc1ccc(Cl)cc1)C(=O)c1cc(S(=O)(=O)N2CCOCC2)ccc1N1CCCC1
- cell number change: -1.2%
- AC50 [2]: 29.1 µM [falling, single point]

SMILES: Cc1[nH]c(=O)c(C#N)c(C)c1Br
- cell number change: -185%
- AC50 [1]: 18.4 µM [falling, single point]

SMILES: Cc1cc(C)n(CC(=O)N/N=C/c2cccs2)n1
- cell number change: -7.96%
- AC50 [2]: 20.6 µM [rising, single point]

SMILES: CC1CN(C(=O)COC(=O)c2cc(=O)c3ccccc3o2)CC(C)O1 (centres undefined)
- cell number change: -18.1%
- AC50 [2]: 0.206 µM [rising, single point]

SMILES: Cc1nc2ccc(Cl)cc2c(-c2ccccc2F)c1CC(=O)O
- cell number change: 78.6%
- AC50 [1]: 16.4 µM [rising, single point]

SMILES: O=C(NCCc1ccccc1)C1CCN(c2nc3ccccc3o2)CC1
- cell number change: -32.2%
- AC50 [1]: 9.2 µM [falling, partial curve]

SMILES: CCOC(=O)C1=C(c2ccccc2)NC(=O)NC1c1ccc(OC)c(OC)c1 (centres undefined)
- cell number change: 43.6%
- AC50 [1]: 16.4 µM [rising, single point]
- AC50 [2]: 23.1 µM [rising, partial curve]

SMILES: O=C(O)CC(NC(=O)C12CC3CC(CC(C3)C1)C2)c1ccc(Cl)cc1 (centres undefined)
- cell number change: 9.22%

SMILES: CNC(=S)Nc1ccc(OCc2ccccc2)cc1
- cell number change: -34.3%

SMILES: CCOC(=O)N1CCN(c2nc(-c3cccc(OC)c3)cc(C(F)(F)F)n2)CC1
- cell number change: -20.6%
- AC50 [2]: 18.4 µM [falling, partial curve]

SMILES: CC(=O)c1cc2c(s1)-c1cc(F)ccc1OC2
- cell number change: 21.6%
- AC50 [2]: 0.291 µM [rising, partial curve]

SMILES: CC(=O)c1cccc(NC(=O)c2cnn(-c3ccccc3)c2C)c1
- cell number change: -26.9%

SMILES: Cc1c(Cl)cccc1NC(=O)c1nc(C)n(-c2cc(OC(C)C)c(Cl)cc2Cl)n1
- cell number change: -35.1%
- AC50 [1]: 0.103 µM [falling, full curve, poor fit]
- AC50 [2]: 20.6 µM [falling, partial curve]

SMILES: CC(OC(=O)c1ccc(Cl)c(S(=O)(=O)N2CCOCC2)c1)C(=O)Nc1ccc(S(N)(=O)=O)cc1 (centres undefined)
- cell number change: -69.1%
- AC50 [1]: 32.6 µM [falling, partial curve]

SMILES: O=C(NCc1ccc(F)cc1)C1CCCN(S(=O)(=O)c2cccc3nonc23)C1 (centres undefined)
- cell number change: 97.7%
- AC50 [1]: 29.1 µM [rising, single point]

SMILES: CCCCNC(=O)COC(=O)c1ccc(F)cc1Cl
- cell number change: 52.2%
- AC50 [1]: 32.6 µM [rising, single point]
